Source: PubChem BioAssay AID1259331 (Drosophila RNAi Screening Center, 2017)
The whole screen tested about 3,100 reagents; this is a random part of them. 126 of them (4.1%) were called active. 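Calls are per reagent; zinc was so toxic that few knock-downs lowered ATP further, so most hits raise ATP.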 The raw values are shown without normalisation. Names joined by + are all predicted targets of the reagent. Not given: the amount of reagent.

- Screen: 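Knock-downs that alter ATP level after a high zinc chloride dose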 (primary screen)
- Cells: Drosophila S2R+ cells
- Reagent: long dsRNA against Drosophila genes
- Timing: 5 days (4 days knock-down, then 1 day zinc)
- Conditions: zinc chloride at 15 mM final level for 1 day
- Detection: 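Total cellular ATP measured by luciferase luminescence as a viability proxy, turned into Z scores from three plate copies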
- Reading the numbers: mean Z score: higher = more ATP than other wells, better survival under zinc; ATP luminescence: higher = more ATP, more viable cells
- Call rule: 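Hit when the absolute Z score is greater than 1.5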
- Meaning of the calls: active = hit, ATP up or down; inactive = not a hit

| predicted target | amplicon | mean Z score | ATP luminescence, replicate 1 | ATP luminescence, replicate 2 | Call |
| --- | --- | --- | --- | --- | --- |
| CG13575 | DRSC22851 | 0.3 | 50189 | 52778 | inactive |
| CG13575 | DRSC39524 | 0.682 | 62981 | 56551 | inactive |
| CG7514 | DRSC08597 | -0.123 | 74678 | 58780 | inactive |
| CG7514 | DRSC25670 | -0.336 | 42405 | 46194 | inactive |
| CG14219 | DRSC19576 | -0.286 | 38668 | 40022 | inactive |
| CG14219 | DRSC26450 | 0.355 | 64919 | 63753 | inactive |
| Zip89B | DRSC16128 | -0.128 | 38719 | 48982 | inactive |
| Zip89B | DRSC29691 | 0.0991 | 59054 | 66857 | inactive |
| Tsp42Ej | DRSC06113 | 0.239 | 50018 | 45483 | inactive |
| Tsp42Ej | DRSC28269 | -0.431 | 41548 | 68178 | inactive |
| CG9855 | DRSC12344 | -0.566 | 26291 | 27422 | inactive |
| Cnx14D + Cnx99A | DRSC16610 | 0.128 | 68797 | 67543 | inactive |
| Ctns | DRSC15175 | 6.2 | 91059 | 1.38e5 | active |
| Ctns | DRSC39640 | 8.4 | 1.88e5 | 1.87e5 | active |
| xit | DRSC18364 | -0.387 | 42106 | 39730 | inactive |
| xit | DRSC39724 | -0.274 | 54407 | 55436 | inactive |
| ninaD | DRSC02886 | 0.442 | 56724 | 38890 | inactive |
| ninaD | DRSC24484 | -0.129 | 53927 | 53533 | inactive |
| VhaM9.7-c | DRSC08204 | -0.156 | 33299 | 28184 | inactive |
| VhaM9.7-c | DRSC30083 | -0.0753 | 46366 | 46914 | inactive |
| CG6356 | DRSC16026 | 0.44 | 36443 | 65657 | inactive |
| CG6356 | DRSC39846 | -0.447 | 47909 | 52030 | inactive |
| Vha16-5 | DRSC02986 | -0.546 | 38959 | 47840 | inactive |

Look-ups from the list.
Value for ninaD [DRSC02886] in “ATP luminescence, replicate 2”: 38890
Value for CG7514 [DRSC08597] in “ATP luminescence, replicate 1”: 74678
CG7514 [DRSC25670], ATP luminescence, replicate 1 = 42405
For “Call”, Vha16-5 [DRSC02986] is entered as inactive
Tsp42Ej [DRSC28269], ATP luminescence, replicate 1 = 41548
Entry of CG9855 [DRSC12344] under “Call”: inactive

Continued.
| predicted target | amplicon | mean Z score | ATP luminescence, replicate 1 | ATP luminescence, replicate 2 | Call |
| --- | --- | --- | --- | --- | --- |
| Gr28b | DRSC02291 | -0.322 | 46609 | 39833 | inactive |
| Gr28b | DRSC02292 | -0.255 | 76992 | 57374 | inactive |
| Gr28b | DRSC29459 | 0.439 | 68298 | 68023 | inactive |
| Balat + asRNA:CR43469 | DRSC06852 | -1.65 | 18990 | 17068 | active |
| Balat + asRNA:CR43469 | DRSC39492 | -0.212 | 41942 | 53738 | inactive |
| alpha-Cat | DRSC39510 | -0.108 | 49328 | 44617 | inactive |
| Sdc | DRSC04654 | 0.184 | 54013 | 35856 | inactive |
| GABA-B-R3 | DRSC00561 | -0.56 | 39285 | 38668 | inactive |
| GABA-B-R3 | DRSC29404 | -0.117 | 56791 | 62450 | inactive |
| Tspo + rempA | DRSC00533 | -0.424 | 49293 | 51233 | inactive |
| Osi19 | DRSC12569 | -0.218 | 72886 | 56516 | inactive |
| COX7AL | DRSC25198 | -1.81 | 32136 | 34729 | active |
| rk | DRSC03602 | 0.351 | 55076 | 40468 | inactive |
| CG7272 | DRSC10795 | 0.217 | 77697 | 70166 | inactive |
| CG7272 | DRSC39569 | -0.0865 | 60718 | 56088 | inactive |
| Alg9 | DRSC14407 | -0.399 | 42730 | 40965 | inactive |
| Alg9 | DRSC39513 | 0.12 | 63547 | 46743 | inactive |
| snu | DRSC16589 | -0.589 | 41171 | 36542 | inactive |
| snu | DRSC39720 | -0.0243 | 54853 | 61678 | inactive |
| Nach | DRSC07478 | -0.103 | 68971 | 75554 | inactive |
| Nach | DRSC39863 | -0.0281 | 55684 | 60495 | inactive |
| sdk | DRSC18831 | -0.379 | 40201 | 42643 | inactive |
| sdk | DRSC39522 | 0.0353 | 49588 | 52879 | inactive |
| Grl43a | DRSC06383 | -0.249 | 75604 | 66389 | inactive |
| emei | DRSC10897 | -0.12 | 37999 | 42487 | inactive |
| emei | DRSC22684 | 0.826 | 60985 | 57631 | inactive |
| Tollo | DRSC11305 | -0.319 | 72928 | 55247 | inactive |
| Tollo | DRSC39718 | -0.52 | 58506 | 50686 | inactive |
| CG33124 | DRSC00298 | -0.295 | 38496 | 45971 | inactive |
| rpk | DRSC21656 | -0.0971 | 46366 | 46777 | inactive |
| Syx17 | DRSC08591 | 0.0918 | 35136 | 33353 | inactive |
| Toll-4 | DRSC03458 | -0.164 | 49898 | 41445 | inactive |
| Toll-4 | DRSC39440 | -0.763 | 39474 | 38136 | inactive |
| Irk3 | DRSC02047 | 0.244 | 55316 | 42131 | inactive |
| Toll-9 | DRSC11776 | 0.621 | 88366 | 68988 | inactive |
| Fitm | DRSC09772 | -0.471 | 25604 | 29846 | inactive |
| Fitm | DRSC28750 | -0.0473 | 61284 | 60032 | inactive |
| pain | DRSC04273 | -0.00879 | 51371 | 39647 | inactive |
| pain | DRSC28351 | 0.792 | 72654 | 74575 | inactive |
| CG13248 | DRSC11696 | -0.172 | 69841 | 56551 | inactive |
| CG13248 | DRSC24446 | -0.9 | 39850 | 53873 | inactive |
| Cad89D | DRSC15022 | -0.435 | 33164 | 51822 | inactive |
| Cad89D | DRSC39775 | -0.477 | 51698 | 47120 | inactive |
| CG34234 + Dh44-R2 | DRSC07278 | -0.475 | 26291 | 27610 | inactive |
| Tsp42Eo | DRSC06184 | 2.76 | 1.14e5 | 1.16e5 | active |
